These are yes or no findings as the source states them, for the method shown. Binding seen in cells or lysates may run through a third protein. These calls come from enrichment with a bait or labelling near it, and not all partners need be listed.
Molecular target: SFB-RIP1 (UniProt Q13546)
Assay: affinity purification with mass spectrometry; SFB-RIP1 transiently expressed in HEK293T; lysate on streptavidin Sepharose 4 h 4°C, biotin elution, then S-protein agarose overnight 4°C; nano-LC-MS/MS

Sequences of proteins named here, by UniProt entry; tags and fusion partners are left off.
UniProt Q13546: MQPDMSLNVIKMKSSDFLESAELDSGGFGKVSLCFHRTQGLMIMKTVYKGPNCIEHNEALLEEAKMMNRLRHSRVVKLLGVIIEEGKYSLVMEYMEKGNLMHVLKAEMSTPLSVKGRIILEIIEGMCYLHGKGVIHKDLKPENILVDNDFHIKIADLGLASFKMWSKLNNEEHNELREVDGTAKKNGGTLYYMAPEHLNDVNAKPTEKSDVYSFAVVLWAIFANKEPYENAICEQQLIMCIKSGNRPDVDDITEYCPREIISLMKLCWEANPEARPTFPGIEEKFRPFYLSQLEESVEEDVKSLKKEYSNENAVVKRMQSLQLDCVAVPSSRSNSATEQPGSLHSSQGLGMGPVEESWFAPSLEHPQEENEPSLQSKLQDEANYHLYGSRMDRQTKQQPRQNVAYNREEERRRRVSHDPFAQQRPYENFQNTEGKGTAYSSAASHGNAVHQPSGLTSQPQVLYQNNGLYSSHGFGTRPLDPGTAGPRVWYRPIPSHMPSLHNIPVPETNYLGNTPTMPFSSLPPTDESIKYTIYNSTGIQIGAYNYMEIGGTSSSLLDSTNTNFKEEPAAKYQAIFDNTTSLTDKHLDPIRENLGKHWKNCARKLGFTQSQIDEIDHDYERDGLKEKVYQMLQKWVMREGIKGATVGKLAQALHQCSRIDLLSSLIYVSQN

binding: binds
Substance: heat shock protein 90-α, endogenous in HEK293T (from UniProt P07900 1-732)

From article PMC8494447
